According to publication PMC4455066:

Columns and labels:
[1] = target: T1, Cbc1, split-tag bait (second purification step) (S. pombe) (UniProt O14253); assay: affinity purification with mass spectrometry; split-tag purification: first step by Mtl1, second step by Iss10, Cbc1 or Pab2; from S. pombe cell extract
T1 sequence: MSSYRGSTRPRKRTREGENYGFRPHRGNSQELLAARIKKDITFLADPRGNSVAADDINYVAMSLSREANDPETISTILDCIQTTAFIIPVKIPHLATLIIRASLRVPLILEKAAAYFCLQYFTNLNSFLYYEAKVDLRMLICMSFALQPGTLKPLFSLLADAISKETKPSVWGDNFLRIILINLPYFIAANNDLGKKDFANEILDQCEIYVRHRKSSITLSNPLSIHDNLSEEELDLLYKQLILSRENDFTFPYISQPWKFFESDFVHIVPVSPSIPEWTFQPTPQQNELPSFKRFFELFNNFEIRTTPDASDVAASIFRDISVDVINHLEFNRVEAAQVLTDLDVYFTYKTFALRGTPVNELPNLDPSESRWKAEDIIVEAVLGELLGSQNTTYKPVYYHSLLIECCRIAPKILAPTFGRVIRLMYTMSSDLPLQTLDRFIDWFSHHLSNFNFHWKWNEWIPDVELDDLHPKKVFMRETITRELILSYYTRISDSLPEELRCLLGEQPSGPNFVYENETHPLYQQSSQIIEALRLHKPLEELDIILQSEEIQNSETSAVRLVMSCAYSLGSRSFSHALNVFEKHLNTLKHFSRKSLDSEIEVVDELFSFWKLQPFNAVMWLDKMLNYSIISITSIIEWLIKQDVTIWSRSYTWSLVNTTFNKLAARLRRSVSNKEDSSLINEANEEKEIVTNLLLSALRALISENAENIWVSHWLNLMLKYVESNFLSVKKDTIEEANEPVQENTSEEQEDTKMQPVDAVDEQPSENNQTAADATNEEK

[2] = target: T2, Pab2, split-tag bait (second purification step) (S. pombe) (UniProt O14327); assay: as above
T2 sequence: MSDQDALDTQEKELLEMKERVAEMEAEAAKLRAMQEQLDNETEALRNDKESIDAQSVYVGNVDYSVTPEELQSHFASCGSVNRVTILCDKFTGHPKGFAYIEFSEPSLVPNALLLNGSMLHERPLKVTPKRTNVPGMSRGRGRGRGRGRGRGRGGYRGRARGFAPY

[3] = target: T3, Red1–FTP (S. pombe) (UniProt Q9UTR8); assay: affinity purification with mass spectrometry; tandem affinity purification of an FTP-tagged bait from S. pombe cell extract (IgG beads, TEV cleavage with Benzonase, anti-Flag beads, Flag peptide elution); 50 mM HEPES pH 7.0, 100 mM NaCl, 1.5 mM MgCl2, 0.15% NP-40; MALDI-TOF of single bands and LC-MS/MS of the whole eluate; wild-type cells, also red1Δ and rmn1Δ backgrounds
T3 sequence: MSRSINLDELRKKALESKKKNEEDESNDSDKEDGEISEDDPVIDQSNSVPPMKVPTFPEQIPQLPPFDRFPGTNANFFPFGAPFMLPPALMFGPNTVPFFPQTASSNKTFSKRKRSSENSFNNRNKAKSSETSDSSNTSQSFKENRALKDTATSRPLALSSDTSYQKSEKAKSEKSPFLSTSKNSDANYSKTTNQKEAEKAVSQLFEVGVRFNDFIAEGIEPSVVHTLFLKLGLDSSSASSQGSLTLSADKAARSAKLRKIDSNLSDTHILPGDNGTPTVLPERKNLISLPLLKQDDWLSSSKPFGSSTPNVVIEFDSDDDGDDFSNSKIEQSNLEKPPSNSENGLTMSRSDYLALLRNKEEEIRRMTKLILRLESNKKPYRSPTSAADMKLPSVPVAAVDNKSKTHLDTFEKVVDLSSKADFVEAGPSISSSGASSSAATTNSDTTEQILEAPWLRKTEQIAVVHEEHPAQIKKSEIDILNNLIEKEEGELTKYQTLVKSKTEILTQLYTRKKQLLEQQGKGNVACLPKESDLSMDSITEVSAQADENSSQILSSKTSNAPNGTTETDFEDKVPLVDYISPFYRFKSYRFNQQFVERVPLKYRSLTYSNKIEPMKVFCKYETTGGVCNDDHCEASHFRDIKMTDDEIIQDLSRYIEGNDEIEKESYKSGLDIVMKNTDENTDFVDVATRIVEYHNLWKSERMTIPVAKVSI

[4] = target: Mtl1, split-tag bait (first purification step) (S. pombe); assay: affinity purification with mass spectrometry; split-tag purification: first step by Mtl1, second step by Iss10, Cbc1 or Pab2; from S. pombe cell extract
[5] = target: Iss10, split-tag bait (second purification step) (S. pombe); assay: as above
[6] = target: Mtl1–FTP (S. pombe); assay: affinity purification with mass spectrometry; tandem affinity purification of an FTP-tagged bait from S. pombe cell extract (IgG beads, TEV cleavage with Benzonase, anti-Flag beads, Flag peptide elution); 50 mM HEPES pH 7.0, 100 mM NaCl, 1.5 mM MgCl2, 0.15% NP-40; MALDI-TOF of single bands and LC-MS/MS of the whole eluate; wild-type cells, also red1Δ and rmn1Δ backgrounds
[7] = target: Red5–FTP (S. pombe); assay: as above
[8] = target: T4, Ars2, tandem affinity tagged (bait) (S. pombe) (UniProt O94326); assay: as above
T4 sequence: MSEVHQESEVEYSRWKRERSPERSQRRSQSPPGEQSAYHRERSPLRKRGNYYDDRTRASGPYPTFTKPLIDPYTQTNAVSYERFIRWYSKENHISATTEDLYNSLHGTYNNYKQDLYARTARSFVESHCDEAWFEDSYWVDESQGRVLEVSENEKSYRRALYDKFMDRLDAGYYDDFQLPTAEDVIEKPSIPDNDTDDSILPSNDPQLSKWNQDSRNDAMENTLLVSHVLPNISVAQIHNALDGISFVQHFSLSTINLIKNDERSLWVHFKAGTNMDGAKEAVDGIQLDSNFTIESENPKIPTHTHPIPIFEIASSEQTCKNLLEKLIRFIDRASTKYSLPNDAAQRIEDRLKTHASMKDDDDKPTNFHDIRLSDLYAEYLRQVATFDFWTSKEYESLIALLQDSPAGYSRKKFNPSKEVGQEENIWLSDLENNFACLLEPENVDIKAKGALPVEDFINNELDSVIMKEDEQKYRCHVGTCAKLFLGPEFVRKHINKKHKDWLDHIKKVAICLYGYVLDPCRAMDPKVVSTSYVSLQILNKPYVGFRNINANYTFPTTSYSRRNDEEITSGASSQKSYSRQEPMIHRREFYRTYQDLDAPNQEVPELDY

Measured: binding

Iss10 (S. pombe (endogenous))
binds: [1] | [2] | [3]

B1: Cbc1 (protein, UniProt O14253 1-780)
chain: MSSYRGSTRPRKRTREGENYGFRPHRGNSQELLAARIKKDITFLADPRGNSVAADDINYVAMSLSREANDPETISTILDCIQTTAFIIPVKIPHLATLIIRASLRVPLILEKAAAYFCLQYFTNLNSFLYYEAKVDLRMLICMSFALQPGTLKPLFSLLADAISKETKPSVWGDNFLRIILINLPYFIAANNDLGKKDFANEILDQCEIYVRHRKSSITLSNPLSIHDNLSEEELDLLYKQLILSRENDFTFPYISQPWKFFESDFVHIVPVSPSIPEWTFQPTPQQNELPSFKRFFELFNNFEIRTTPDASDVAASIFRDISVDVINHLEFNRVEAAQVLTDLDVYFTYKTFALRGTPVNELPNLDPSESRWKAEDIIVEAVLGELLGSQNTTYKPVYYHSLLIECCRIAPKILAPTFGRVIRLMYTMSSDLPLQTLDRFIDWFSHHLSNFNFHWKWNEWIPDVELDDLHPKKVFMRETITRELILSYYTRISDSLPEELRCLLGEQPSGPNFVYENETHPLYQQSSQIIEALRLHKPLEELDIILQSEEIQNSETSAVRLVMSCAYSLGSRSFSHALNVFEKHLNTLKHFSRKSLDSEIEVVDELFSFWKLQPFNAVMWLDKMLNYSIISITSIIEWLIKQDVTIWSRSYTWSLVNTTFNKLAARLRRSVSNKEDSSLINEANEEKEIVTNLLLSALRALISENAENIWVSHWLNLMLKYVESNFLSVKKDTIEEANEPVQENTSEEQEDTKMQPVDAVDEQPSENNQTAADATNEEK
not listed: [1]
binds: all other assays above

B2: canonical poly(A) polymerase Pla1 (enzyme, UniProt Q10295 1-566)
chain: MTTKQWGITPPISTAPATEQENALNTALINELKNQNLFESPAESEKRVKVLDELQQITTEFVKKVSLAKHMNEKMANEAGGKIFTYGSYRLGVYGPGSDIDTLVVVPKHVSRDNFFQDLEPMLREREEVTDLAAVPDAYVPIIKFKFLGISIDLIFARLSVPRVPRDLELSDNNLLKGVEERCVLSLNGTRVTDQILQLVPNRAVFKHALRAIKFWAQRRAIYANVVGFPGGVAWAMMVARICQLYPNAVSSVIVAKFFRILHQWNWPQPILLKPIEDGPLQVRIWNPKLYPSDKAHRMPIITPAYPSMCATHNITLSTQTIILREMVRAGEIADQIMVKALPWSALFQKHDFFHRYKHYLTITAAAKTAEAQLKWAGLVESKLRHLVTRLELVDAIALAHPFNKGFDKVYNCSSEEEAQQVASGVTLEVAYESTDHEKLANDTVNEEKADNTESKADGSENGEKQIFPVYTTTCYIGLELEKKKGHPIKRLDISWPTQEFYELCKKWDKYDDTLMNVFIKNTKNTALPDEVFEPGEERPKATKKRSTADTAHSTEQLKRQKVSTA
not listed: [7] | [8]
binds: all other assays above

B3: Pab2 (protein, UniProt O14327 1-166)
chain: MSDQDALDTQEKELLEMKERVAEMEAEAAKLRAMQEQLDNETEALRNDKESIDAQSVYVGNVDYSVTPEELQSHFASCGSVNRVTILCDKFTGHPKGFAYIEFSEPSLVPNALLLNGSMLHERPLKVTPKRTNVPGMSRGRGRGRGRGRGRGRGGYRGRARGFAPY
not listed: [2] | [8]
binds: all other assays above

B4: Red1 (protein, UniProt Q9UTR8 1-712)
chain: MSRSINLDELRKKALESKKKNEEDESNDSDKEDGEISEDDPVIDQSNSVPPMKVPTFPEQIPQLPPFDRFPGTNANFFPFGAPFMLPPALMFGPNTVPFFPQTASSNKTFSKRKRSSENSFNNRNKAKSSETSDSSNTSQSFKENRALKDTATSRPLALSSDTSYQKSEKAKSEKSPFLSTSKNSDANYSKTTNQKEAEKAVSQLFEVGVRFNDFIAEGIEPSVVHTLFLKLGLDSSSASSQGSLTLSADKAARSAKLRKIDSNLSDTHILPGDNGTPTVLPERKNLISLPLLKQDDWLSSSKPFGSSTPNVVIEFDSDDDGDDFSNSKIEQSNLEKPPSNSENGLTMSRSDYLALLRNKEEEIRRMTKLILRLESNKKPYRSPTSAADMKLPSVPVAAVDNKSKTHLDTFEKVVDLSSKADFVEAGPSISSSGASSSAATTNSDTTEQILEAPWLRKTEQIAVVHEEHPAQIKKSEIDILNNLIEKEEGELTKYQTLVKSKTEILTQLYTRKKQLLEQQGKGNVACLPKESDLSMDSITEVSAQADENSSQILSSKTSNAPNGTTETDFEDKVPLVDYISPFYRFKSYRFNQQFVERVPLKYRSLTYSNKIEPMKVFCKYETTGGVCNDDHCEASHFRDIKMTDDEIIQDLSRYIEGNDEIEKESYKSGLDIVMKNTDENTDFVDVATRIVEYHNLWKSERMTIPVAKVSI
binds: [1] | [5] | [2]

Results are given in words; binding and its absence hold for the method and conditions named. In cells and extracts the contact can be indirect. Here binding means that the protein was enriched with, or labelled near, the bait; the list need not be complete. For some of these results: Tags and fused reporters may be left off the sequences shown.
